# Values of other authors, collected in publication PMC12349723, “Computationally accelerated identification of P-glycoprotein inhibitors” (PLOS One, 2025).
# Test system: P-gp
# Set-up: method as in earlier work
# Conditions: ref [66-68]; cited from earlier work
compound,measurement,value
CCCCc1oc2ccccc2c1C(=O)c1cc(I)c(OCCN(CC)CC)c(I)c1 [Amiodarone],P-gp Substrate? (known transport substrate of P-gp),Yes
